Measurements from the supplement of paper PMC10849652.
This is one part of the list.

By UniProt entry, the sequences of proteins in these tests, tags left out. Where a name states a change or a piece, a line headed by the entry shows the natural chain unless it says otherwise.
UniProt Q5JTZ9, whole entry, looked up: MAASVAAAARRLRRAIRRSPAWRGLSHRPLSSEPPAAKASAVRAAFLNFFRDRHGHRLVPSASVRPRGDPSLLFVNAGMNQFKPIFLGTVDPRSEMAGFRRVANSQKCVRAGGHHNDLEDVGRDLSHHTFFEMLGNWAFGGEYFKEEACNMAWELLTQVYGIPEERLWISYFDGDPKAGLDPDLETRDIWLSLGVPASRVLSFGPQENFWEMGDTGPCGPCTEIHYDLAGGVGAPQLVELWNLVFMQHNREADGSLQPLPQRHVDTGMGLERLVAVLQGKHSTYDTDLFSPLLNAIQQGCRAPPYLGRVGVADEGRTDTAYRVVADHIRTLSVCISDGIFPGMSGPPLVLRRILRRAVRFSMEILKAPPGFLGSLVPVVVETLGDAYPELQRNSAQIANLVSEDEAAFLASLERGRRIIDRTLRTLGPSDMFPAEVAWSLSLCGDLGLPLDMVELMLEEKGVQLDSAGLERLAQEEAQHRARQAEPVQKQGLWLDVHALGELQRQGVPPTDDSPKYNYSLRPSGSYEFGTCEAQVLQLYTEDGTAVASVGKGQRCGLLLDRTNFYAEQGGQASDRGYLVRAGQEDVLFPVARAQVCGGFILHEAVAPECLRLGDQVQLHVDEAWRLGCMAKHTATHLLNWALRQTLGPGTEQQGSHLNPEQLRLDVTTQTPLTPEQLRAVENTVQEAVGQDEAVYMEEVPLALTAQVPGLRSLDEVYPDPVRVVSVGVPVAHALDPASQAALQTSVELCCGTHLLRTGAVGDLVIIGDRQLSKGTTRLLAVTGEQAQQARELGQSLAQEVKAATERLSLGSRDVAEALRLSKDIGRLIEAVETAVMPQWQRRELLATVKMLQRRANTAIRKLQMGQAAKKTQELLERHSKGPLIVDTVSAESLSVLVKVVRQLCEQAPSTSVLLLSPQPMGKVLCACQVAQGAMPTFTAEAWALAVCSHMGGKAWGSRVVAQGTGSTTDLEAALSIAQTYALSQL
UniProt O15439: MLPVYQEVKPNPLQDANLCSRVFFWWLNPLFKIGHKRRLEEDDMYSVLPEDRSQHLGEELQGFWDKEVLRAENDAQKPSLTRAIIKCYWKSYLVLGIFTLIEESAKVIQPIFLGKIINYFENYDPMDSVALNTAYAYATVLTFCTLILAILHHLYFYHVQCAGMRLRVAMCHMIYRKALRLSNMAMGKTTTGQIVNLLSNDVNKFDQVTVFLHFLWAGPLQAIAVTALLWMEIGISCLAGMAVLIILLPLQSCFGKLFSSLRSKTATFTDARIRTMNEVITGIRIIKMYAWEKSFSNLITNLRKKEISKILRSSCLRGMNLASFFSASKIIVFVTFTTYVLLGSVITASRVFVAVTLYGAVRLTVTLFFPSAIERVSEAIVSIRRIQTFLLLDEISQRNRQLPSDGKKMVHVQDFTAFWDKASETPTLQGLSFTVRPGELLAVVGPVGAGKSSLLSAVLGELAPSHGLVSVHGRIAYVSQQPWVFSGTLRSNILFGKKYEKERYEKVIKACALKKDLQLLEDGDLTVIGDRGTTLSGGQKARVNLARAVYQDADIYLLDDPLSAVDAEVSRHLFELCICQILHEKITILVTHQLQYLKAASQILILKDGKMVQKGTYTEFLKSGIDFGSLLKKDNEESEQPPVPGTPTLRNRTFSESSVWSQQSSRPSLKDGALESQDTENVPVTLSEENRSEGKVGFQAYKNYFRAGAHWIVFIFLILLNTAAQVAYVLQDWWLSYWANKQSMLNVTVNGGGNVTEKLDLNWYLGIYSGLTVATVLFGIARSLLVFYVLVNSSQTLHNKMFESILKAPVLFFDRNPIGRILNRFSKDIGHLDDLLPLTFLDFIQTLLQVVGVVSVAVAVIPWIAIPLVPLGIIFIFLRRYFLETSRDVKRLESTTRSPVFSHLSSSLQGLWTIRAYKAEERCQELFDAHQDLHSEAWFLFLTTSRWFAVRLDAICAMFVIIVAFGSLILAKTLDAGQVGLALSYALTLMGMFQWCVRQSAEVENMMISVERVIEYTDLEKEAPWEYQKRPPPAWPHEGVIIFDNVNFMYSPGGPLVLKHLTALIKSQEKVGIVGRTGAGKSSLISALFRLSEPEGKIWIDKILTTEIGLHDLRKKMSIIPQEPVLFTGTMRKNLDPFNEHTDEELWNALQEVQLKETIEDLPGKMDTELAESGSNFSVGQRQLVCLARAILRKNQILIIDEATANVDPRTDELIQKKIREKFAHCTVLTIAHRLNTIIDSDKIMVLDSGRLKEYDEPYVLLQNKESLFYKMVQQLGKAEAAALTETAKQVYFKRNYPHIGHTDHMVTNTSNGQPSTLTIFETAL
UniProt Q8WTS1: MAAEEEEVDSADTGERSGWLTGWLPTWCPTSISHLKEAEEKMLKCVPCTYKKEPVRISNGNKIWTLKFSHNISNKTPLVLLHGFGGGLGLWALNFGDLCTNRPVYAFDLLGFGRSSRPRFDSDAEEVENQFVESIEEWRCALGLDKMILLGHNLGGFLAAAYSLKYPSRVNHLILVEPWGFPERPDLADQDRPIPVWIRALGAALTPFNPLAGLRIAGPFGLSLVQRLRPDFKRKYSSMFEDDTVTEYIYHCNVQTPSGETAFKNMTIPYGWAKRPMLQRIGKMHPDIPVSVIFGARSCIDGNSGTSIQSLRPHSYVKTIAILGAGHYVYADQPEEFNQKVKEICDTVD
UniProt Q99798: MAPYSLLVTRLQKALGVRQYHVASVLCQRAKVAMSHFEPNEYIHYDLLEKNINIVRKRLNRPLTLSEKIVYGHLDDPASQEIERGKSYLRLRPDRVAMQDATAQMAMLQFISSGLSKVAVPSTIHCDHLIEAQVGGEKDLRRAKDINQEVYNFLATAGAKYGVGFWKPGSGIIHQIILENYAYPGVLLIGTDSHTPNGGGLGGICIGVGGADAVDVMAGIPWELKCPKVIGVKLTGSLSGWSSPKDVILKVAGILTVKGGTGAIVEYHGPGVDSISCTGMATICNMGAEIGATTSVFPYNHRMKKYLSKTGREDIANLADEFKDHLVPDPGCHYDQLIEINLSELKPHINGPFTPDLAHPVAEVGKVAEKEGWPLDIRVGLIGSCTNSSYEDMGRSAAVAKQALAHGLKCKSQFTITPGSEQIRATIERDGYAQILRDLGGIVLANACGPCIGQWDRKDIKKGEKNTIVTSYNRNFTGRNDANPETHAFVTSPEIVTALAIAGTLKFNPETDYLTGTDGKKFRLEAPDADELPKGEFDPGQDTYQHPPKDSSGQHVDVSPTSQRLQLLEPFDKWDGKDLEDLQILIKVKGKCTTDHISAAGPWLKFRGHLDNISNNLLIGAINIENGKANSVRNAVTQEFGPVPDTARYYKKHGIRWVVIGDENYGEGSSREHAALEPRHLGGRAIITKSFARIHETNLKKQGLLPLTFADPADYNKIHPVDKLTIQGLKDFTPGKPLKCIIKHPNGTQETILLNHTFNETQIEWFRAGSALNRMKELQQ
UniProt Q9P1F3: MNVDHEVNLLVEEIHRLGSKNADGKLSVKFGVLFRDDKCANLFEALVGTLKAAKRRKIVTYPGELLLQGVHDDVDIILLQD
UniProt P53396: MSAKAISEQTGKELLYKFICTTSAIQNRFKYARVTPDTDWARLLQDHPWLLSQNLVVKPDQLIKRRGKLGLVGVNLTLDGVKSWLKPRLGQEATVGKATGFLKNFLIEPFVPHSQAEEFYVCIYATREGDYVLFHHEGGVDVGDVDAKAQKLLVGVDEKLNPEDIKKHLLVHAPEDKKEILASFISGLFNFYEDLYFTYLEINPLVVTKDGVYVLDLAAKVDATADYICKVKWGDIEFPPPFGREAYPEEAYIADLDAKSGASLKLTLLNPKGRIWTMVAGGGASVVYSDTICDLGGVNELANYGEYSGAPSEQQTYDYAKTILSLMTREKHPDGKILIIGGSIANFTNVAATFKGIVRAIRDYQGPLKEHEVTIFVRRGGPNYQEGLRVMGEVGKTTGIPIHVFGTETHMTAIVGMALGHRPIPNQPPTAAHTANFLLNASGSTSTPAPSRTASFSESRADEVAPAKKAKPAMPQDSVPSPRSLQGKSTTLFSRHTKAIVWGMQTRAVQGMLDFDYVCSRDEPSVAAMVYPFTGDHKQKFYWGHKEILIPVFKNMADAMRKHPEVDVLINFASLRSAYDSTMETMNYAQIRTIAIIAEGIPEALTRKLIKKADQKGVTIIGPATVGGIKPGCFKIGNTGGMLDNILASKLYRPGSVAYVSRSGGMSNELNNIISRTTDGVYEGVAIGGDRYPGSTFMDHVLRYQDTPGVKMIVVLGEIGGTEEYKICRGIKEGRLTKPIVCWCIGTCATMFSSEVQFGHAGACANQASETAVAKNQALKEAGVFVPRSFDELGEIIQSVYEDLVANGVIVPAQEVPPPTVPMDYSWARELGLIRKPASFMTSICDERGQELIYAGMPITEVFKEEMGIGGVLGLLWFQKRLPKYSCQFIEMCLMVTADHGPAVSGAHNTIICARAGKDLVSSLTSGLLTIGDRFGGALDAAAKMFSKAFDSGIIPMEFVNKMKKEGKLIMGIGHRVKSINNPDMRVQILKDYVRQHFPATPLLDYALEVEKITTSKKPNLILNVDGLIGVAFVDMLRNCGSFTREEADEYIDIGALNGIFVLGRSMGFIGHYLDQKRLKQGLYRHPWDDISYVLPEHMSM
UniProt Q9UNQ0: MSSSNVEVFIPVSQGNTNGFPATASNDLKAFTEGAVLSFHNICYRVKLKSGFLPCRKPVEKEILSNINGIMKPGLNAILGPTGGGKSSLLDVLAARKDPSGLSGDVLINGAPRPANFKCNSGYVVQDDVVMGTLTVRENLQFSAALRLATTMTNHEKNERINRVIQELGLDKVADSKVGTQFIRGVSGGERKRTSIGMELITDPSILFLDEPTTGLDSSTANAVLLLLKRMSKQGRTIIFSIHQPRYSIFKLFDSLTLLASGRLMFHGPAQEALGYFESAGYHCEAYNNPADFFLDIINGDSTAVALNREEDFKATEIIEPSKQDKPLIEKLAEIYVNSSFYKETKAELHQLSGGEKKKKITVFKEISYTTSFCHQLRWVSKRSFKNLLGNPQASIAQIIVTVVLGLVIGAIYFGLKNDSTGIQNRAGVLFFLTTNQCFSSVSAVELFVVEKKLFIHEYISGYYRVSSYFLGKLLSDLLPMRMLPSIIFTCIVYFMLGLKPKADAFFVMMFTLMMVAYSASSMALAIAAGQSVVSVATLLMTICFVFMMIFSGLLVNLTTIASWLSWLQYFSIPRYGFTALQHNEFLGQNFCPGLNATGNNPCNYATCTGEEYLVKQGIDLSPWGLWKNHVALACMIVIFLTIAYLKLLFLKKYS
UniProt Q9UKU7: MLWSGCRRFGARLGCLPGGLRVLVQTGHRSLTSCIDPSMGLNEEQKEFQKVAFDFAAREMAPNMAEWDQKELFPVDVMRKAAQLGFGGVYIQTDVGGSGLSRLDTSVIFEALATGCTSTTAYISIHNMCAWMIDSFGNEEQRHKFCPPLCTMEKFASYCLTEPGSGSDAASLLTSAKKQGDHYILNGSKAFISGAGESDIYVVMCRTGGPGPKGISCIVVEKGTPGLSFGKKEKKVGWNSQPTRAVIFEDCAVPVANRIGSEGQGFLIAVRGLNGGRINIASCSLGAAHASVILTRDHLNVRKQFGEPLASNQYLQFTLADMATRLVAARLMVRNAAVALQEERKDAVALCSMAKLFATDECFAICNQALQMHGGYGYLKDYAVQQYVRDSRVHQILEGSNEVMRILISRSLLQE
UniProt Q96P50: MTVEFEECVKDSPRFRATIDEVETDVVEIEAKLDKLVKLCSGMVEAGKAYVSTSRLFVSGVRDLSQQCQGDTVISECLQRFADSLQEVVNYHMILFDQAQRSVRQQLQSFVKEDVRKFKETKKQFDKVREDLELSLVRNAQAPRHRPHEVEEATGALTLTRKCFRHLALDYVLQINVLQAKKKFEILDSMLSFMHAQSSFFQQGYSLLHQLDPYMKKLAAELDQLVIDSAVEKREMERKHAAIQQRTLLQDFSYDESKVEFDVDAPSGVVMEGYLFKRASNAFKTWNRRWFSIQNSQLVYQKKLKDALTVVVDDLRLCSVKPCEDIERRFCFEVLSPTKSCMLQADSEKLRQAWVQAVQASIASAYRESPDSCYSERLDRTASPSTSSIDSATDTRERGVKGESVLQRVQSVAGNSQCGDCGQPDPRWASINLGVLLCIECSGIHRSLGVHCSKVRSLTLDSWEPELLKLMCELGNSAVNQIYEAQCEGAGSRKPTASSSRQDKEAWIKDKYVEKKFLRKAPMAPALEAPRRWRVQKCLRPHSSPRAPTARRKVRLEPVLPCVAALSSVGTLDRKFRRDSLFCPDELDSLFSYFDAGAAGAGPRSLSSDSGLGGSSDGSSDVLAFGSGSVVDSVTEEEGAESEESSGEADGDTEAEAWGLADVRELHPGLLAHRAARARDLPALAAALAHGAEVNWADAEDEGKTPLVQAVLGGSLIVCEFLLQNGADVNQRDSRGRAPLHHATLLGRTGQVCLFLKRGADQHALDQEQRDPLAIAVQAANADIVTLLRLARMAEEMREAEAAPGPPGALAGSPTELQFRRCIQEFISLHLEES

How the values were obtained:
Experiment in all cases: log2 fold change, soluble protein after heating vs DMSO (PISA); higher = thermal stabilisation; K562 lysate, 10 uM; active = over 0.2 and 3.5 SD of the protein, either way, in both replicates (recomputed)
[1] = compound: CCCS(=O)(=O)Nc1ccc(F)c(C(=O)c2c[nH]c3ncc(-c4ccc(Cl)cc4)cc23)c1F [vemurafenib]
Summary of the method: (§1)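 Quantification was by TMTpro 16plex LC-MS/MS with equalised channel sums, applied to the supernatant after 21,000xg for 90 min. Samples were crude K562 extract at 1 mg/mL protein in PBS pH 7.4 with 1 mM MgCl2, treated with 10 μM compound for 30 min, heated for 3 min across 48°C-58°C, pooled and brought to 0.5% NP-40 at 4°C. Values are log-two fold changes in thermal stability relative to solvent controls, from duplicates.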

[2] = compound: CCCS(=O)(=O)Nc1ccc(F)c(C(=O)c2c[nH]c3ncc(Cl)cc23)c1F
Summary of the method: as §1

[3] = compound: CCN(CCCOc1ccc2c(Nc3cc(CC(=O)Nc4cccc(F)c4)[nH]n3)ncnc2c1)CCOP(=O)(O)O [barasertib]
Summary of the method: as §1

[4] = compound: CC[C@@H]1C(=O)N(C)c2cnc(Nc3ccc(C(=O)NC4CCN(C)CC4)cc3OC)nc2N1C1CCCC1
Summary of the method: as §1

[5] = compound: CC[C@@H]1C(=O)N(C)c2cnc(Nc3ccc(C(=O)N[C@H]4CC[C@H](N5CCN(CC6CC6)CC5)CC4)cc3OC)nc2N1C(C)C [volasertib]
Summary of the method: as §1

[6] = compound: CCn1c(C(=O)N(C2CC2)C2CC2)cc2c3c(ncn3C)c(Nc3cc(C)n(C)n3)nc21
Summary of the method: as §1

[7] = compound: CCn1cc(-c2ccnc3[nH]c(-c4cccc(CN(C)C)c4)cc23)c(-c2ccc(NC(=O)N(C)C)cc2)n1
Summary of the method: as §1

[8] = compound: CN1CCC(CNc2ccc3ncc(-c4cccc(OC(F)(F)F)c4)n3n2)CC1
Summary of the method: as §1

[9] = compound: CN1CCN(CCOc2cc(OC3CCOCC3)c3c(Nc4c(Cl)ccc5c4OCO5)ncnc3c2)CC1 [saracatinib]
Summary of the method: as §1

[10] = compound: CN1CCN(c2nc(C3=C(c4c[nH]c5ccccc45)C(=O)NC3=O)c3ccccc3n2)CC1 [sotrastaurin]
Summary of the method: as §1

Row | Target | log2 fold change [1] | log2 fold change [2] | log2 fold change [3] | log2 fold change [4] | log2 fold change [5] | log2 fold change [6] | log2 fold change [7] | log2 fold change [8] | log2 fold change [9] | log2 fold change [10]
1 | AARS2 (UniProt Q5JTZ9) | inactive: 0.041 | inactive: -0.052 | inactive: 0.029 | inactive: -0.055 | inactive: -0.037 | inactive: 0.027 | inactive: 0.027 | inactive: -0.053 | inactive: 0.003 | inactive: 0.031
2 | ABCC4 (UniProt O15439) | inactive: 0.064 | inactive: 0.039 | inactive: 0.026 | inactive: 0.045 | inactive: 0.047 | inactive: -0.018 | inactive: -0.083 | inactive: 0.051 | inactive: 0.016 | inactive: -0.005
3 | ABHD17A isoform 2 (UniProt Q96GS6) | inactive: -0.007 | inactive: -0.08 | inactive: 0.007 | inactive: 0.036 | inactive: 0.012 | inactive: 0.022 | inactive: 0.001 | inactive: 0.013 | inactive: -0.027 | inactive: -0.05
4 | ABHD5 (UniProt Q8WTS1) | inactive: 0.083 | inactive: 0.021 | inactive: -0.015 | inactive: 0.069 | inactive: -0.031 | inactive: -0.045 | inactive: 0 | inactive: -0.217 | inactive: -0.062 | inactive: 0.008
5 | ACO2 (UniProt Q99798) | inactive: 0.034 | inactive: -0.003 | inactive: -0.004 | inactive: 0.002 | inactive: -0.016 | inactive: -0.027 | inactive: -0.107 | inactive: 0.042 | inactive: -0.013 | inactive: 0.008
6 | ABRACL (UniProt Q9P1F3) |  | inactive: -0.074 | inactive: 0.06 |  | inactive: -0.001 |  | inactive: 0.156 | inactive: 0.053 | inactive: 0.134 | inactive: 0
7 | ACLY isoform 2 (UniProt P53396) | inactive: 0.035 | inactive: 0 | inactive: -0.088 | inactive: 0.045 | inactive: -0.033 | inactive: -0.187 | active: -0.485 | inactive: 0.43 |  | inactive: 0.02
8 | ACAT1, A0A5F9ZHJ0 |  |  |  |  |  | inactive: -0.131 | inactive: -0.006 | inactive: 0.081 |  | 
9 | ABI1 isoform 6 (UniProt Q8IZP0) |  | inactive: -0.219 |  | inactive: 0.248 | inactive: 0.026 |  |  |  |  | 
10 | ABCG2 (UniProt Q9UNQ0) |  |  |  |  |  |  | inactive: -0.049 | inactive: 0.127 |  | 
11 | ACAD8 (UniProt Q9UKU7) | inactive: 0.023 | inactive: 0.022 | inactive: -0.121 |  | inactive: -0.01 |  | inactive: -0.046 | inactive: 0.019 | inactive: 0.102 | inactive: 0.041
12 | ABT1 (UniProt Q9ULW3) | inactive: 0.191 | inactive: 0.015 | inactive: -0.042 | inactive: 0.007 | inactive: -0.046 | inactive: 0.004 | inactive: -0.002 | inactive: -0.017 | inactive: 0.021 | inactive: 0.105
13 | ABHD3 (UniProt Q8WU67) |  |  |  |  |  | inactive: -0.13 |  |  |  | 
14 | A0A494C100, A0A494C100 | inactive: -0.142 |  | inactive: -0.053 |  |  |  | inactive: 0.219 | inactive: -0.09 | inactive: -0.705 | 
15 | A2ML1 (UniProt A8K2U0) |  | inactive: -0.018 | inactive: 0.853 |  | inactive: 0.033 | inactive: 0.243 | inactive: -0.289 | inactive: 0.099 |  | inactive: 0.16
16 | ACE (UniProt P12821) | inactive: 0.132 | inactive: 0.011 |  |  | inactive: -0.148 |  |  |  |  | 
17 | ACAP3 (UniProt Q96P50) |  | inactive: 0.193 | inactive: -0.464 | inactive: -0.007 | inactive: -0.079 | inactive: 0.046 |  |  | inactive: -0.011 | 

An excerpt from above with just log2 fold change [7]:
Row,Target,log2 fold change [7]
7,ACLY isoform 2 (UniProt P53396),active: -0.485
8,"ACAT1, A0A5F9ZHJ0",inactive: -0.006
